In all, about 360,000 compounds went through this assay and about 9,100 (2.5%) were called active. The inconclusive results got no clear call from the source; some entries with a clear call stand among them for comparison. Cut-off read from the data, not from the text of the source: active = max response below about -50%; inconclusive = no clear call, values can overlap the other calls; inactive = above that.
molecular target: D(3) dopamine receptor (Homo sapiens) (UniProt P35462); assay: qHTS of D3 Dopamine Receptor Antagonist: qHTS; details: D3R cells, DiscoveRx beta-arrestin luminescence, antagonist mode; stronger effect = lower value
In short: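 Cells plated overnight at 1500 cells/well, then exposed to library compounds with dopamine controls for 90 minutes at 37 degrees C. DiscoveRx reagent added for 30–60 minutes at room temperature; luminescence read, quantitative HTS format.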
% is set by controls: 0 for no effect and ±100 for the full control effect.

Sequences of proteins named here, by UniProt entry; tags and fusion partners are left off.
UniProt P35462, whole entry, looked up: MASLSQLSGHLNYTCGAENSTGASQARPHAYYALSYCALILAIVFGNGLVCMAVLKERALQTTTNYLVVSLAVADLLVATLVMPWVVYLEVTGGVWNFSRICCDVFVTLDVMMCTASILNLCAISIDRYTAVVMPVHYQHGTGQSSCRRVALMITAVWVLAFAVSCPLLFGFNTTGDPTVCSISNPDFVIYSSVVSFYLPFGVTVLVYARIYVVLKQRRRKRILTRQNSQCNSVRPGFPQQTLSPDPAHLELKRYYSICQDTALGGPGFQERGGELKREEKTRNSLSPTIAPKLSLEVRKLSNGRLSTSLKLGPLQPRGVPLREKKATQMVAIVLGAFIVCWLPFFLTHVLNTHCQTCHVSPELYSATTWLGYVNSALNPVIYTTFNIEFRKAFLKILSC

SMILES | max response, negative = inhibition
CCC(O)c1nc2ccccc2n1CCc1ccccc1 (stereo not given) | inconclusive: -42.9%
CN1CCN(C(=O)CCN2C(=O)/C(=C/c3cccc(Br)c3)SC2=S)CC1 | inconclusive: -44.4%
COC(=O)Nc1ccc2c(c1)N(C(=O)CCN1CCN3CCCC3C1)c1ccccc1S2 (stereo not given) | inconclusive: -42.1%
CCCCNC(=S)N/N=C/c1ccc(C#N)cc1 | inconclusive: -30.2%
Cc1ccc(NC(=O)CNC(=O)COc2ccccc2)nc1 | inconclusive: -38.6%
Cc1ccc2nc(N(CCCN(C)C)C(=O)c3ccco3)sc2c1 | inconclusive: -31.8%
COc1ccccc1/C=C/c1nc2ccc(OC(C)=O)cc2c(=O)o1 | inactive: -0.903%
O=C(NC(CO)Cc1ccccc1)c1ccccc1 (stereo not given) | inconclusive: -43.4%
COc1ccc(C(NC(=O)C2CCN(CCOc3ccc(Cl)cc3Cl)CC2)c2ccccc2C)cn1 (stereo not given) | active: -77.2%
CN1c2ccsc2C(O)=C(C(=O)Nc2ccccc2)S1(=O)=O | inconclusive: -43.8%
O=C(Nc1ccccc1Oc1ccccc1)[C@@H]1O[C@H](CO)[C@H](O)[C@H](O)[C@H]1O | active: -162%
CCOc1ncccc1C(=O)NNC(=O)c1cccc(S(=O)(=O)N2CCOCC2)c1 | inactive: -0.657%
Cc1ccc(OCC(=O)N/N=C2/SCC(=O)N2Cc2ccccc2)cc1 | inactive: -22%
O=c1c(-c2cccc3ccccc23)[n+]([O-])c2ccccc2n1O | active: -53%
COc1ccccc1Oc1coc2cc(O)ccc2c1=O | inconclusive: -36.7%
O=C(Nc1ccccc1N1CCCCC1)c1ccc(-c2cccc(Cl)c2)o1 | inconclusive: -32.8%
O=C(NC(=S)Nc1ccc(N2CCCCC2)c(Cl)c1)c1cccs1 | inconclusive: -46.7%
Cc1cc(C)n(CCC(=O)N2c3ccccc3CC2C)n1 (stereo not given) | inactive: -7.74%
COCCCNC1=C(Cl)C(=O)c2ccccc2C1=O | inactive: -9.5%
Cc1nc2ccc(NC(=O)c3ccc(Cl)c(NC(=O)c4cccs4)c3)cc2s1 | inconclusive: -44.9%
OC(COCc1cccs1)CN1CCN(c2ccccc2Cl)CC1 (stereo not given) | active: -69.2%
CCc1cccc(OCCn2ccnc2)c1 | inconclusive: -34.2%

Structures shown so far that have a carbonyl joined to an NH by a bond outside any ring:
SMILES | max response, negative = inhibition
COC(=O)Nc1ccc2c(c1)N(C(=O)CCN1CCN3CCCC3C1)c1ccccc1S2 (stereo not given) | inconclusive: -42.1%
Cc1ccc(NC(=O)CNC(=O)COc2ccccc2)nc1 | inconclusive: -38.6%
O=C(NC(CO)Cc1ccccc1)c1ccccc1 (stereo not given) | inconclusive: -43.4%
COc1ccc(C(NC(=O)C2CCN(CCOc3ccc(Cl)cc3Cl)CC2)c2ccccc2C)cn1 (stereo not given) | active: -77.2%
CN1c2ccsc2C(O)=C(C(=O)Nc2ccccc2)S1(=O)=O | inconclusive: -43.8%
O=C(Nc1ccccc1Oc1ccccc1)[C@@H]1O[C@H](CO)[C@H](O)[C@H](O)[C@H]1O | active: -162%
CCOc1ncccc1C(=O)NNC(=O)c1cccc(S(=O)(=O)N2CCOCC2)c1 | inactive: -0.657%
Cc1ccc(OCC(=O)N/N=C2/SCC(=O)N2Cc2ccccc2)cc1 | inactive: -22%
O=C(Nc1ccccc1N1CCCCC1)c1ccc(-c2cccc(Cl)c2)o1 | inconclusive: -32.8%
O=C(NC(=S)Nc1ccc(N2CCCCC2)c(Cl)c1)c1cccs1 | inconclusive: -46.7%
Cc1nc2ccc(NC(=O)c3ccc(Cl)c(NC(=O)c4cccs4)c3)cc2s1 | inconclusive: -44.9%

Next results.

SMILES | max response, negative = inhibition
CC1CN(C(=O)c2cc(S(=O)(=O)N3CCN(c4ccccc4)CC3)ccc2Cl)CC(C)O1 (stereo not given) | inactive: 8.2%
Cc1cc(C)cc(N=Cc2ccc([N+](=O)[O-])s2)c1 | inconclusive: -31.4%
Cc1cc2ncn(C(=O)c3cc(-c4ccccc4)nc4ccccc34)c2cc1C | inactive: -7.6%
CC1CN(Cc2ccc(Cl)cc2Cl)CC(C)O1 (stereo not given) | inconclusive: -32.5%
CCN(Cc1ccccc1)C(=O)CN1C(=O)NC(CC)(c2ccc(F)cc2)C1=O (stereo not given) | inactive: -7.85%
COc1ccc(CN2CC[C@H]3C=CCc4cccc(c43)C2)cc1 | active: -103%
Cc1ccc(C)c(NC(=O)COC(=O)c2cccc3c2C(=O)c2ccccc2C3=O)c1 | inactive: 39.9%
O=C(Nc1ccc(N2CCN(c3ncccc3C(F)(F)F)CC2)nc1)c1cccs1 | inactive: 12.8%
Cc1ccc(C)c(CN2CCC(CNC(=O)Nc3cccc(Cl)c3C)CC2)c1 | inconclusive: -46.9%
O=C(Cc1ccccc1F)Nc1ccc(S(=O)(=O)N2CCCCC2)cc1 | inactive: 8.39%
Cc1nnc(N2C(=O)C(O)=C(C(=O)c3ccco3)C2c2ccc(C(C)(C)C)cc2)s1 (stereo not given) | active: -83.1%
O=C1c2ccccc2C(=O)c2c1cccc2N1CCN(Cc2ccccc2)CC1 | active: -83%
N#Cc1ccc(/C=C/C(=O)c2ccc3c(c2)OCO3)cc1 | inconclusive: -31%
O=C(CN1CCN(c2ccccc2Cl)CC1)NC1CCCc2ccccc21 (stereo not given) | inconclusive: -43.5%
CCN(CC)CCCN(C(=O)c1ccc(Br)cc1)c1nc(-c2ccc(OC)cc2)cs1 | inconclusive: -37.5%
O=C(O)c1ccc([N+](=O)[O-])cc1Sc1ccsc1 | active: -56.7%
C[C@@H]1CN([C@H](C)CO)C(=O)Cc2cc(NS(=O)(=O)c3cn(C)cn3)ccc2O[C@H]1CN(C)S(=O)(=O)c1ccc(Cl)cc1 | inactive: 7.74%
COc1ccc(C2CC(C(F)(F)F)n3nc(C(=O)NCc4c(C)nn(C)c4C)c(Cl)c3N2)cc1 (stereo not given) | inactive: 13.6%
C[C@]12c3[nH]c4ccccc4c3CCN1C(=O)C(CC(=O)NCc1cccc(C(F)(F)F)c1)C[C@@H]2C(=O)N1CCCCC1 (stereo not given in full) | inactive: -20%
CC(C(=O)NC(C)(C)C)N(Cc1cccs1)C(=O)CCN1CCc2ccccc21 (stereo not given) | inactive: -15.6%
CSc1cccc(NC(=S)N(CCCN2CCCC2)Cc2cccn2Cc2ccc(Cl)cc2)c1 | inconclusive: -41%
COc1ccc(C=O)cc1Cn1cnc2c(cnn2C)c1=O | inactive: 8.29%

SMILES | max response, negative = inhibition
CN(C)CCN(C(=O)c1ccc2ccccc2c1)c1nc2ccc(Br)cc2s1 | active: -54.9%
O=[N+]([O-])C1C(c2ccccc2)=NOC1c1ccccc1O (stereo not given) | inconclusive: -33.5%
CCOc1ccc2oc(C(=O)OCC(=O)NC3CC3)c(C)c2c1 | inactive: -17.5%
O=C(C1CCCN(S(=O)(=O)Cc2ccccc2)C1)N1CCC(Cc2ccccc2)CC1 (stereo not given) | inactive: 26.5%
CCc1ccc(S(=O)(=O)/N=C2\C=C(NS(=O)(=O)c3ccccc3)C(=O)c3ccccc32)cc1 | inconclusive: -32%
O=C(CN(Cc1ccc(F)cc1)C(=O)CCC(=O)Nc1nccs1)NCC1CCCO1 (stereo not given) | inactive: 6.85%
COc1ccccc1Cn1c(C)c(C(=O)NCc2cccc(C)c2)sc1=O | active: -57.5%
Cc1ccc(C)c(OCc2cc(C(=O)N3CC[C@@H]4CCCC[C@H]4C3)no2)c1 | inconclusive: -33.4%
CCN(CC)c1ccc(C(=C2C=CC(=[N+](CC)CC)C=C2)c2ccccc2)cc1 | active: -105%
Nc1ccn([C@@H]2O[C@H](CNCc3ccc(-c4cc(C(F)(F)F)ccc4Cl)o3)[C@@H](O)[C@H]2O)c(=O)n1 | inconclusive: -47.5%
CC(=O)N/C(=N/c1nc(C)cc(C)n1)Nc1ccc(C)cc1C | inactive: 18.3%
CCOC(=O)C1CN(C(=O)OCC)CC1=NNC(N)=O (stereo not given) | inactive: 6.72%
CCNc1ccc(Br)cc(C(=O)/C=C/c2ccc(Cl)cc2Cl)c1=O | active: -77.5%
Cc1cc(=O)oc(C)c1C(=O)NCCCN1CCN(c2ccc(F)cc2)CC1 | inconclusive: -46.4%
Oc1c(C(c2cccc(F)c2)N2CCN(Cc3ccccc3)CC2)sc2ncnn12 (stereo not given) | inconclusive: -38.8%
O=c1c2cc([N+](=O)[O-])cc([N+](=O)[O-])c2[nH]n1-c1ccccc1 | inconclusive: -46.7%
CCOc1ccc(S(=O)(=O)NCCC(=O)NCCOc2ccccc2OC)cc1 | inconclusive: -30.9%
COc1ccccc1N1CCN(C(c2cccs2)C(C)NS(=O)(=O)c2ccccc2)CC1 (stereo not given) | inconclusive: -45.4%
COC(=O)C1N[C@@H]([C@@H](NC(=O)COc2ccccc2)C(=O)NCc2ccc(OC)cc2)SC1(C)C (stereo not given in full) | inconclusive: -36.6%
O=C(O)c1cccc(N2C(=O)c3cc([N+](=O)[O-])cc4cc([N+](=O)[O-])cc(c34)C2=O)c1 | active: -57.9%
COc1ccc(/C(O)=C2\C(=O)C(=O)N(c3cc(C)on3)C2c2cccc(OC)c2OC)cc1C (stereo not given) | inconclusive: -41.4%
COc1ccc(CCN2C(=O)C=CC2=O)cc1OC | inconclusive: -47.1%

Copied from the list.
`O=[N+]([O-])C1C(c2ccccc2)=NOC1c1ccccc1O` (stereo not given) – max response, negative = inhibition: inconclusive: -33.5%
`O=C(C1CCCN(S(=O)(=O)Cc2ccccc2)C1)N1CCC(Cc2ccccc2)CC1` (stereo not given) – max response, negative = inhibition: inactive: 26.5%

(more compounds)

SMILES | max response, negative = inhibition
CC1CN(C2CCCCC2)C(=S)N(c2ccccc2)C1=O (stereo not given) | inactive: -6.42%
CCOC(=O)C1CCCN(C(=O)/C=C/c2ccccc2[N+](=O)[O-])C1 (stereo not given) | inactive: -8.22%
COc1ccccc1-n1cc(-c2ccccc2)c2c(=S)nc[nH]c21 | inconclusive: -32.3%
Cc1cc(Cl)ccc1OCC(=O)OC(C)C(=O)N(C)C (stereo not given) | inactive: 7.59%
CCC(C)[C@@H](C(=O)Nc1ccc(OC)c(OC)c1)N1Cc2ccccc2C1=O (stereo not given in full) | inconclusive: -40.8%
CN(C)CCOCCOc1ccccc1-c1ccccc1 | active: -68.6%
O=c1c2c(-c3ccc(Cl)cc3)csc2ncn1/N=C/c1cccc([N+](=O)[O-])c1O | active: -60.8%
COc1ccc(C(=O)c2cc([N+](=O)[O-])ccc2N2CCN(C)CC2)cc1 | inactive: -18.9%
CCOC(=O)c1nn(-c2ccccc2C)c2nc(-c3ccc(C)cc3)c(C#N)c(=O)n12 | inactive: 0%
Cc1ccc(Cl)cc1NC(=S)N(CCCN1CCN(C)CC1)Cc1cccs1 | inconclusive: -33.8%
CCc1ccccc1OCc1nc2ccc(S(=O)(=O)N3CCOCC3)cc2[nH]1 | active: -56.2%
Cc1ccc(CN2CCC(C(=O)c3ccc(F)cc3)CC2)cc1 | active: -122%
CCc1ccc(/C=N/NC(=O)c2cc(C3CC3)nc3ccc(Br)cc23)s1 | inconclusive: -44%
CCC1=C(C(=O)OC)C(c2cc(OC)ccc2OC)C(C#N)=C(N)O1 (stereo not given) | inconclusive: -43.5%
Cc1ccc([C@@H]2CC=C(C(=O)O)[C@H](c3cccc(Cl)c3)N2S(=O)(=O)c2ccccc2C)cc1 | inconclusive: -30.8%
CN(c1ccccc1)S(=O)(=O)c1cccc(NC(=O)CCNC(=O)c2ccc([N+](=O)[O-])cc2)c1 | inconclusive: -31%
CCCCNC(=O)CNC(=S)N(Cc1ccccc1)Cc1cccnc1 | inconclusive: -30.3%
Cc1c(C(=O)NCc2ccc(F)cc2)sc(=O)n1Cc1ccc(Cl)c(Cl)c1 | active: -74.4%
CCOC(=O)c1ccc(S(=O)(=O)N2CCC(C(=O)NCC3COc4ccccc4O3)CC2)cc1 (stereo not given) | inconclusive: -40.1%
